Binding data for one molecule are collected here from PMC13155533, “The secreted protein PCYOX1L controls the surface expression of acid-sensing ion channel 1a” (Science Advances, 2025).

Results are given in words; binding and its absence hold for the method and conditions named. Sequences can lack the tags named with a protein.

For this test, the target named is rat ASIC1a-GFP (rat) (UniProt P55926). Nature of the test: native gel or EMSA; high-resolution clear native PAGE (4 to 16%) of GFP-tagged proteins from 1% digitonin lysates of transfected HEK cells, GFP fluorescence scan; without coexpressed PCYOX1L. (In general: Mobility shift assays separate free from complexed probe on a gel.)

B1: rat ASIC1a-GFP (natural protein, UniProt P55926-1 1-526, looked up)
chain: MELKTEEEEVGGVQPVSIQAFASSSTLHGLAHIFSYERLSLKRALWALCFLGSLAVLLCVCTERVQYYFCYHHVTKLDEVAASQLTFPAVTLCNLNEFRFSQVSKNDLYHAGELLALLNNRYEIPDTQMADEKQLEILQDKANFRSFKPKPFNMREFYDRAGHDIRDMLLSCHFRGEACSAEDFKVVFTRYGKCYTFNSGQDGRPRLKTMKGGTGNGLEIMLDIQQDEYLPVWGETDETSFEAGIKVQIHSQDEPPFIDQLGFGVAPGFQTFVSCQEQRLIYLPSPWGTCNAVTMDSDFFDSYSITACRIDCETRYLVENCNCRMVHMPGDAPYCTPEQYKECADPALDFLVEKDQEYCVCEMPCNLTRYGKELSMVKIPSKASAKYLAKKFNKSEQYIGENILVLDIFFEVLNYETIEQKKAYEIAGLLGDIGGQMGLFIGASILTVLELFDYAYEVIKHRLCRRGKCQKEAKRSSADKGVALSLDDVKRHNPCESLRGHPAGMTYAANILPHHPARGTFEDFTC
notes: ASIC1a, rat, in pEGFP-N1; the methods say that rat ASIC1a was used for coexpression with PCYOX1L in HEK293 cells; The vector pEGFP-N1 would put GFP at the C-terminus; source: HEK cells, transfected, in digitonin lysate
On to B1, for which the binding entry is on record as “no binding (condition: without coexpressed PCYOX1L)”.
